From PubChem BioAssay AID1347075 (National Center for Advancing Translational Sciences (NCATS), 2019)
The campaign covered roughly 400,000 compounds. About 5,500 (1.4%) were called active. Inconclusive results, whose numbers are uncertain, are shown with a selection of clear calls. Calls follow the shape of the dose curve; as a rule, active = well fitted cell-killing curve with a large enough effect; inconclusive = small, poorly fitted or top-dose-only effect, or effect the other way; inactive = flat fitted curve, though single readings scatter. A potency beside an inconclusive call is a rough fit, not a confirmed value.

Test: qHTS assay for MDR1-selective chemotherapeutics: Primary screen using the parental adenocarcinoma cell KB-3-1; also: nearly all actives have a fitted effect of over 60% in size
Settings: KB-3-1 viability, CellTiter-Glo ATP luminescence, 72 h; activity change, negative = cytotoxic: at 46.1 µM (top of the series)
Outline: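 Viability of parental KB-3-1 cells, measured by CellTiter-Glo luminescence, followed a 72 h incubation at 37 °C with pinned compounds in phenol-red-free DMEM containing 10% FBS.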
% is scaled to controls: 0 for no effect and ±100 for the full control effect; potency is read from the fitted curve at half-maximal effect.

Row | SMILES | activity change, negative = cytotoxic | Potency
1 | CCOC(=O)c1c(C)[nH]c(C)c1S(=O)(=O)NCC(=O)Nc1cccc(C#N)c1 | inactive: 7.62% | –
2 | CC(C)CC1Nc2ccc(C(=O)NCCCN3CCOCC3)cc2NC1=O (stereo not given) | – | inconclusive: 0.651 µM [rising, full curve, poor fit]
3 | c1coc(Cn2c(SCc3nc4ccccc4[nH]3)nnc2-c2cnccn2)c1 | inactive: 0.277% | –
4 | O=C(O)C(=O)/C(=C\c1ccsc1)c1ccc2ccccc2n1 | – | inconclusive: 29.1 µM [rising, partial curve, poor fit]
5 | CN(C)CCCN(C(=O)c1ccc(C(=O)c2ccccc2)cc1)c1nc2cc3c(cc2s1)OCCO3 | inactive: -19.4% | –
6 | Cc1cccc(NC2=C/C(=N/S(=O)(=O)c3cccs3)c3ccccc3C2=O)c1 | – | inconclusive: 10.3 µM [cytotoxic, partial curve]
7 | Cc1csc(CN(C)C(=O)CC2C(=O)NCCN2Cc2ccccc2C)n1 (stereo not given) | inactive: -2.36% | –
8 | Fc1ccc(Sc2ccccc2CNC2=NCCN2)cc1 | – | inconclusive: 29.1 µM [cytotoxic, single point]
9 | COC(=O)[C@@]1(Cc2ccc(F)cc2)[C@H]2c3cc(C(=O)N(C)C)n(CCCNc4ncc(C(F)(F)F)cc4Cl)c3C[C@H]2CN1C(=O)c1ccccc1 | – | inconclusive: 23.1 µM [cytotoxic, single point]
10 | CCOc1cc(-c2nnc(NC(=O)C3=COCCO3)o2)cc(OCC)c1OCC | – | inconclusive: 29.1 µM [rising, single point]
11 | O=C(CCN1C(=O)C2C3CCC(C3)C2C1=O)OCC(=O)c1ccccc1 (stereo not given) | inconclusive: 1.52% | –
12 | Cc1cc2c3c(c1)C1(C(=O)N3C(C)(C)CC2C)C(C#N)=C(N)Oc2n[nH]c(C)c21 (stereo not given) | – | inconclusive: 20.6 µM [cytotoxic, single point]
13 | CSCC[C@H](NC(=O)c1ccc(OCC2CCCO2)cc1)c1nc2ccccc2[nH]1 (stereo not given in full) | – | inconclusive: 5.8 µM [rising, full curve, poor fit]
14 | O=C(Nc1ccc(Br)cc1F)c1cc(S(=O)(=O)NC2CCCCC2)ccc1F | inactive: -13.2% | –
15 | CC(C)c1nc(Nc2nc3ccccc3o2)nc2c1CCCC2 | inactive: -4.32% | –
16 | COc1ccccc1OCc1cc(C(=O)NCc2ccc(N3CCCC3=O)cc2)no1 | inactive: -6.09% | –
17 | CC(C)CNC(=S)N1CCC(c2nc(-c3ccc(F)cc3)no2)CC1 | – | inconclusive: 23.1 µM [cytotoxic, partial curve, poor fit]
18 | Cc1ccc(CNC(=O)CSCc2ccccc2)cc1 | inactive: -2.31% | –
19 | O=C(C1CC(=O)N(c2ccccc2)C1)N1CCN(c2ccccc2F)CC1 (stereo not given) | inactive: -2.92% | –
20 | S=C(NCc1ccccc1)NCc1ccccc1Cl | inactive: -2.67% | –
21 | Cc1nc(Oc2ccc(S(=O)(=O)N3CCOCC3)cc2Cl)c2c3c(sc2n1)CCCC3 | – | inconclusive: 23.1 µM [cytotoxic, single point]
22 | Cc1[nH]c2ccccc2c1/C=N/Nc1ccc([N+](=O)[O-])cc1S(=O)(=O)Nc1ccc(Cl)cc1 | – | inconclusive: 23.1 µM [cytotoxic, single point]
23 | CC(=O)N(CN1C(=O)c2ccc([N+](=O)[O-])cc2C1=O)c1cccc(C(=O)O)c1 | – | inconclusive: 10.3 µM [rising, partial curve, poor fit]
24 | COc1ccc(OC)c(C2CC(c3ccccc3)=NN2C(=S)Nc2ccccc2)c1 (stereo not given) | inactive: -18.9% | –

Row | SMILES | activity change, negative = cytotoxic | Potency
25 | NC(=O)c1ccc(NC(=O)COC(=O)c2c3c(nc4ccccc24)/C(=C\c2ccc4c(c2)OCO4)CCC3)cc1 | – | inconclusive: 29.1 µM [cytotoxic, single point]
26 | COC(=O)CNC(=O)c1sc2ncn(CC(=O)Nc3ccc(C)c(Cl)c3)c(=O)c2c1C | inactive: -0.079% | –
27 | O=C(COC(=O)C1=NNC(=O)CC1)NCCc1ccccc1 | inactive: 1.17% | –
28 | C[C@@H]1CCCCO[C@H](CN(C)S(=O)(=O)c2ccc(F)cc2)[C@@H](C)CN([C@H](C)CO)C(=O)c2cc(NC(=O)Nc3ccc(C(F)(F)F)cc3)ccc2O1 | inactive: 2.56% | –
29 | C[C@@H]1CN([C@H](C)CO)C(=O)c2c(c3ccccc3n2C)-c2ccccc2CO[C@H]1CN(C)Cc1ccc(C(F)(F)F)cc1 | – | inconclusive: 29.1 µM [cytotoxic, single point]
30 | CC1CCN(C(=O)CCN2C(=O)/C(=C/c3cccs3)SC2=S)CC1 | – | inconclusive: 20.6 µM [cytotoxic, single point]
31 | CSc1ncc(C(=O)Nc2ccc(C)c(Cl)c2)c(-c2ccccc2)n1 | inactive: -14% | –
32 | CCN(CC)CCn1c(NC(=O)c2ccccc2O)nc2ccccc21 | – | inconclusive: 29.1 µM [cytotoxic, single point]
33 | C=CCc1c(C)nc(-c2ccccc2)nc1Nc1ccc(O)cc1 | – | active: 20.6 µM
34 | COc1ccccc1N1Cc2ccccc2C1 | inactive: -6.9% | –
35 | NC(=O)COc1ccc(/C=C2\C(=O)ON=C2c2ccccc2)cc1 | inactive: -11.1% | –
36 | Cn1c(=O)oc2cc(S(=O)(=O)N3CCc4ccccc43)ccc21 | – | inconclusive: 23.1 µM [cytotoxic, single point]
37 | CNC(=O)C[C@H]1C(=O)N(c2ccc(Br)cc2)C[C@@H]1C | inactive: -9.39% | –
38 | CCOC(=O)N1CCc2c(sc3c2C(=O)NC(c2cc(OC)c(OC)c(OC)c2)N3)C1 (stereo not given) | – | active: 16.4 µM
39 | CC(C)(C)C(=O)COC(=O)c1ccc(O)cc1 | – | inconclusive: 11.6 µM [rising, partial curve, poor fit]
40 | Cc1ccc(-c2nnc(SCC(=O)Nc3ccccc3F)o2)cc1 | – | active: 5.17 µM
41 | Cn1nnnc1Sc1ncnc2scc(-c3ccc(C(F)(F)F)cc3)c12 | – | inconclusive: 3.26 µM [cytotoxic, full curve, poor fit]
42 | CCOc1ccc(S(=O)(=O)N2c3ccccc3CC2C)cc1 (stereo not given) | – | active: 1.16 µM
43 | Cc1cccc(C)c1-n1nnnc1C(c1cccc2ccccc12)N1CCN(C/C=C/c2ccccc2)CC1 (stereo not given) | inactive: -2.63% | –
44 | CN(CC(=O)Nc1cc(C(F)(F)F)ccc1-n1cncn1)Cc1ccccc1N1CCOCC1 | – | inconclusive: 18.4 µM [cytotoxic, single point]
45 | c1ccc(-c2nc(-c3cnc4ccccc4n3)cs2)cc1 | – | inconclusive: 29.1 µM [cytotoxic, single point]
46 | COc1ccc([C@@H]2[C@@H]3C(=O)N(C(C)(C)C)C(=O)[C@@H]3[C@]3(C)C(=O)N(c4cccc(Br)c4)C(=O)N23)cc1 | inactive: 0% | –
47 | CCCCSc1nnc2n(-c3ccc(OC)cc3)c(=O)c3c4c(sc3n12)COC(C(C)C)C4 (stereo not given) | inactive: -1.56% | –
48 | CN1C2CCC1/C(=C\c1ccccc1)C(=O)/C2=C\c1ccccc1 | – | active: 7.31 µM

Some of these compounds in order of number of heavy atoms, descending:
Row | SMILES | activity change, negative = cytotoxic | Potency
43 | Cc1cccc(C)c1-n1nnnc1C(c1cccc2ccccc12)N1CCN(C/C=C/c2ccccc2)CC1 (stereo not given) | inactive: -2.63% | –
46 | COc1ccc([C@@H]2[C@@H]3C(=O)N(C(C)(C)C)C(=O)[C@@H]3[C@]3(C)C(=O)N(c4cccc(Br)c4)C(=O)N23)cc1 | inactive: 0% | –
42 | CCOc1ccc(S(=O)(=O)N2c3ccccc3CC2C)cc1 (stereo not given) | – | active: 1.16 µM

Compounds shown so far containing a nitro group on carbon, in the order listed:
Row | SMILES | activity change, negative = cytotoxic | Potency
22 | Cc1[nH]c2ccccc2c1/C=N/Nc1ccc([N+](=O)[O-])cc1S(=O)(=O)Nc1ccc(Cl)cc1 | – | inconclusive: 23.1 µM [cytotoxic, single point]
23 | CC(=O)N(CN1C(=O)c2ccc([N+](=O)[O-])cc2C1=O)c1cccc(C(=O)O)c1 | – | inconclusive: 10.3 µM [rising, partial curve, poor fit]

(continued)

Row | SMILES | activity change, negative = cytotoxic | Potency
49 | CC(=O)c1ccc(NC(=O)c2cc(C)nc3c2c(C)nn3-c2ccc(C)cc2)cc1 | inactive: 11.8% | –
50 | CSc1nc2nc(C)c(C/C=C/c3ccccc3)c(=O)n2[nH]1 | inactive: 13.9% | –
51 | CCOC(=O)C1(CCOc2ccccc2)CCN(Cc2cc(OC)cc(OC)c2)CC1 | – | inconclusive: 13 µM [cytotoxic, partial curve]
52 | COc1ccc(CCN(C)C(=O)Cc2ccc(-c3ccccc3)cc2)cc1OC | inconclusive: -40.4% | –
53 | S=C(NCCCc1cnc[nH]1)NCCCN(Cc1ccc(Cl)c(Cl)c1)c1ccc(Br)cn1 | – | active: 13 µM
54 | COc1cccc(-n2c(SCC(N)=O)nc3c([nH]c4ccccc43)c2=O)c1 | – | inconclusive: 29.1 µM [cytotoxic, single point]
55 | CC1(C(=O)NCc2ccccc2Br)CCN1C(=O)Cc1ccc(-c2ccccc2)cc1 (stereo not given) | – | inconclusive: 29.1 µM [cytotoxic, single point]
56 | Cc1cc(C)nc(Nc2nc(C(N)Cc3ccc(C(F)(F)F)cc3)cs2)n1 (stereo not given) | – | inconclusive: 29.1 µM [cytotoxic, single point]
57 | Nc1ccc(C(=O)Nc2ccc(Nc3ccncc3)cc2)c([N+](=O)[O-])c1 | – | inconclusive: 2.31 µM [rising, partial curve, poor fit]
58 | CSCCC(C(=O)OCC(=O)c1ccc(C)c(C)c1)N1C(=O)c2cc(Cl)c(Cl)cc2C1=O (stereo not given) | – | inconclusive: 29.1 µM [cytotoxic, single point]
59 | CCCNC1=CC(=O)CC(C)(C)C1 | – | inconclusive: 29.1 µM [rising, single point]
60 | CCc1c(C)c2ccc(OCC(=O)N(C)C)c(C)c2oc1=O | inactive: -14.6% | –
61 | CCOC(=O)[C@H]1[C@H]2COc3ccc(Cl)cc3[C@@H]2N2C(=O)c3cc(F)c(F)cc3NC(=O)[C@@]12C | – | active: 23.1 µM
62 | O=C(CCN1C(=O)/C(=C/c2cccs2)SC1=S)Nc1cccc(O)c1 | – | inconclusive: 29.1 µM [rising, single point]
63 | COc1ccc(C(=O)Nc2cc(C)nn2-c2nc3ccccc3[nH]2)c(OC)c1 | inactive: -4.69% | –
64 | CCOc1ccc(-n2c(SCC(=O)Nc3ccc(OC)cc3)nc3c(c2=O)SCC3)cc1 | – | inconclusive: 25.9 µM [cytotoxic, single point]
65 | O=C(Nc1ccc(F)cc1F)N1CCCN(CCOc2ccccc2)CC1 | – | inconclusive: 18.4 µM [cytotoxic, partial curve, poor fit]
66 | N#Cc1c(-c2ccc3c(c2)OCO3)csc1N | – | inconclusive: 18.4 µM [cytotoxic, single point]
67 | CCOc1ccccc1NC(=O)Cn1c(=O)n(-c2ccc(F)cc2)c(=O)c2sc3ccccc3c21 | – | inconclusive: 32.6 µM [rising, single point]
68 | CCOc1ccc(OCC(=O)Nc2ccc(S(=O)(=O)Nc3cc(C)nc(C)n3)cc2)cc1 | inactive: 0% | –
69 | CCc1cnc2ccccc2c1/C=C/c1ccc(N(C)C)cc1 | – | inconclusive: 29.1 µM [cytotoxic, single point]
70 | CCOC(=O)CNC(=O)CSc1nnc(-c2cccc(C)c2)n1-c1ccc(OC)cc1 | – | inconclusive: 29.1 µM [cytotoxic, single point]
